Data as given in doi:10.1101/2021.06.17.448816.
Results are given in words; binding and its absence hold for the method and conditions named.

Biological target: MBP-tagged SARS-CoV-2 nsp1 (full-length, His6-MBP fusion) (SARS-CoV-2) (UniProt P0DTD1)
Assay: pull-down

B1: primase heterodimer Pri1 - Pri2 (complex, UniProt P49642 1-420; P49643 1-509)
chain 1: METFDPTELPELLKLYYRRLFPYSQYYRWLNYGGVIKNYFQHREFSFTLKDDIYIRYQSFNNQSDLEKEMQKMNPYKIDIGAVYSHRPNQHNTVKLGAFQAQEKELVFDIDMTDYDDVRRCCSSADICPKCWTLMTMAIRIIDRALKEDFGFKHRLWVYSGRRGVHCWVCDESVRKLSSAVRSGIVEYLSLVKGGQDVKKKVHLSEKIHPFIRKSINIIKKYFEEYALVNQDILENKESWDKILALVPETIHDELQQSFQKSHNSLQRWEHLKKVASRYQNNIKNDKYGPWLEWEIMLQYCFPRLDINVSKGINHLLKSPFSVHPKTGRISVPIDLQKVDQFDPFTVPTISFICRELDAISTNEEEKEENEAESDVKHRTRDYKKTSLAPYVKVFEHFLENLDKSRKGELLKKSDLQKDF
chain 2: MEFSGRKWRKLRLAGDQRNASYPHCLQFYLQPPSENISLIEFENLAIDRVKLLKSVENLGVSYVKGTEQYQSKLESELRKLKFSYRENLEDEYEPRRRDHISHFILRLAYCQSEELRRWFIQQEMDLLRFRFSILPKDKIQDFLKDSQLQFEAISDEEKTLREQEIVASSPSLSGLKLGFESIYKIPFADALDLFRGRKVYLEDGFAYVPLKDIVAIILNEFRAKLSKALALTARSLPAVQSDERLQPLLNHLSHSYTGQDYSTQGNVGKISLDQIDLLSTKSFPPCMRQLHKALRENHHLRHGGRMQYGLFLKGIGLTLEQALQFWKQEFIKGKMDPDKFDKGYSYNIRHSFGKEGKRTDYTPFSCLKIILSNPPSQGDYHGCPFRHSDPELLKQKLQSYKISPGGISQILDLVKGTHYQVACQKYFEMIHNVDDCGFSLNHPNQFFCESQRILNGGKDIKKEPIQPETPQPKPSVQKTKDASSALASLNSSLEMDMEGLEDYFSEDS
For B1, the binding was “no binding”.
